Binding data for one molecule are collected here from article PMC9430589.

The experiment addresses T1, C-terminus His6-tagged PNPase (polynucleotide phosphorylase, DR_2063) of D. radiodurans (D. radiodurans) (UniProt Q9RSR1).
T1 sequence: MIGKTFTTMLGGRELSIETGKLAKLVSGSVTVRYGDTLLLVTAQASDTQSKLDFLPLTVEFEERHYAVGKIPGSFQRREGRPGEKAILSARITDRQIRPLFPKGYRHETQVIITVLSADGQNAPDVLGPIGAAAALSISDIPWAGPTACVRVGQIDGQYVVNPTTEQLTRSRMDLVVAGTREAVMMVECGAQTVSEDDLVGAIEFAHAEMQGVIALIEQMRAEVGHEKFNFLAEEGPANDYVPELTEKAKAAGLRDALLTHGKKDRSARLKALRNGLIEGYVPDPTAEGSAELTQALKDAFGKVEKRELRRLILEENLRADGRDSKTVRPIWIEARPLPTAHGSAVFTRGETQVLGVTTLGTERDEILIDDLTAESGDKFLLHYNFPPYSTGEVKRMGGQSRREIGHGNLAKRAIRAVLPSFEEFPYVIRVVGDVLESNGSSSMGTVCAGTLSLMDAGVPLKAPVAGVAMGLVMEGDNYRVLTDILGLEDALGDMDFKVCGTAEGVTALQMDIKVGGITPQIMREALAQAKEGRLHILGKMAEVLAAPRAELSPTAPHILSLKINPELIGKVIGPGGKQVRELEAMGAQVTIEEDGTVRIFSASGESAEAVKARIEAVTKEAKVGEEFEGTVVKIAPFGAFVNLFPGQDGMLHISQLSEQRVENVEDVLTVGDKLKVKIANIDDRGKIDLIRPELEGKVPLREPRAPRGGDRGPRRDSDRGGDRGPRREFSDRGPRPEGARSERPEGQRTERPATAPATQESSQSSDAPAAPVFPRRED
As to the kind of experiment: co-IP; C-terminal His6-tagged PNPase from pRADgro as bait in D. radiodurans strains with chromosomal 3×FLAG-tagged RhlB, RpsA or Rho; formaldehyde cross-linking, sonication; 500 μg lysate treated with or without RNase A and T1, then Ni-NTA magnetic beads; Western blot with anti-FLAG antibody; His6 tag alone as control. On the technique in general: Immunoblotting shows a protein as a band on a membrane.

Results are given in words; binding and its absence hold for the method and conditions named. In cells and extracts the contact can be indirect. Tags and fused reporters may be left off the sequences shown.

B1: Rho-3×FLAG (chromosomally tagged transcription termination factor Rho, DR_1338) (protein, UniProt P52153 1-426)
chain: MTVTEVAPQALPFQELQEKILPELHLLAAGLGIENYRKLKKDALALAIMEKQADAEGQSLARGYLDITSDGYGFLQADLLDPASRSVLVTAGVIKQYHLRTGDEVIGRARKPRENERYGSLVRVEAVNGLDPEAARQRPRFDDLTPTFPDQQLVLEDPSTDDGLSLRVVDLLVPIGRGQRALIVAPPKAGKTTLLKKIANSITKNYPDVTVMVLLVDERPEEVTDFRESVQGAQVIASTFDEPPQHHVRVAEFVHERARRIVEEGGHVVILLDSITRLARANNLVTPPTGRTLSGGLDSNALHWPKRFLGAARNIREGGSLTILATALVETGSRMDDVIFEEFKGTGNAELVLSRRLEERRIFPALDILKSGTRREELLLQPEVLKKMWLLRKVISDMDPADAMEMLLGRMGKTRNNVEFLAALAG
Regarding B1, the binding result is on record as “no binding”.
